Results as given in paper PMC2361330.
No constants are given. Whether binding was seen depends on the method and setting. Binding seen in cells or lysates may run through a third protein. Some binding calls cover weakened binding; strength is not graded here.

By UniProt entry, the sequences of proteins in these tests, tags left out. Residues count along the entry.
UniProt P17948, residues 27-1338: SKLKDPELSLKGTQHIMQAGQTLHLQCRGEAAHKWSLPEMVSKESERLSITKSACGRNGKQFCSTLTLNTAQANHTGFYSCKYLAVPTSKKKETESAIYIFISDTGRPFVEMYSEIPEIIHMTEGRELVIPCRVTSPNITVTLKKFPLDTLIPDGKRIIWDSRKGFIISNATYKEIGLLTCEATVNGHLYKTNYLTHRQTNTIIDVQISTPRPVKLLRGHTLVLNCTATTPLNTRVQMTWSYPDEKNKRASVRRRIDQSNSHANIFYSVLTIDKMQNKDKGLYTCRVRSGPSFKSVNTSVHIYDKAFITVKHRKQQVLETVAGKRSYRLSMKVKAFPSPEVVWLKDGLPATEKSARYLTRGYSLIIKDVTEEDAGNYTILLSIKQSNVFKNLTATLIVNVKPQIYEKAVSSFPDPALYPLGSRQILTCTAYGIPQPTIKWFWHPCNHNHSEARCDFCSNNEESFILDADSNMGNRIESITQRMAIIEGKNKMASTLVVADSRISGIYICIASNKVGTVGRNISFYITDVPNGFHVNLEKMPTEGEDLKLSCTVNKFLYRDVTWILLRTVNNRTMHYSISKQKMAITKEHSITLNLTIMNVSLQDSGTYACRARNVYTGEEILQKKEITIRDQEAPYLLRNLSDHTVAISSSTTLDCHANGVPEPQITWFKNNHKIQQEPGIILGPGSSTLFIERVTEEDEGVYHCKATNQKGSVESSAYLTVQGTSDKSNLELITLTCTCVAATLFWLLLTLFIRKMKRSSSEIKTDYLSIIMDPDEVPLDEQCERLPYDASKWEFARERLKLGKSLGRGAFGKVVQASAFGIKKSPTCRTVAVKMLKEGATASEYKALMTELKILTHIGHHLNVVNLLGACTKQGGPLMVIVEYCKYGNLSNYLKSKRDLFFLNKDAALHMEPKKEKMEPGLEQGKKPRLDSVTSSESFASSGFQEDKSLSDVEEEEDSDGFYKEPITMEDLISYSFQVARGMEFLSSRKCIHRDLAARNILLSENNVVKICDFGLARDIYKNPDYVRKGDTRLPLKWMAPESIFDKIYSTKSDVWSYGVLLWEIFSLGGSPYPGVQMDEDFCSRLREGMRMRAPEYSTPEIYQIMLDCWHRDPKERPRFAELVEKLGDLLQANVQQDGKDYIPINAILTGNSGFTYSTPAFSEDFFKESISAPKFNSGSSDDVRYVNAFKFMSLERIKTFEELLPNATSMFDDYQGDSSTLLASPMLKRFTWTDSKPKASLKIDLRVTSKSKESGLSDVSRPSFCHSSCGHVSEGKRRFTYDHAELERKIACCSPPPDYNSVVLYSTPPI
UniProt P07947: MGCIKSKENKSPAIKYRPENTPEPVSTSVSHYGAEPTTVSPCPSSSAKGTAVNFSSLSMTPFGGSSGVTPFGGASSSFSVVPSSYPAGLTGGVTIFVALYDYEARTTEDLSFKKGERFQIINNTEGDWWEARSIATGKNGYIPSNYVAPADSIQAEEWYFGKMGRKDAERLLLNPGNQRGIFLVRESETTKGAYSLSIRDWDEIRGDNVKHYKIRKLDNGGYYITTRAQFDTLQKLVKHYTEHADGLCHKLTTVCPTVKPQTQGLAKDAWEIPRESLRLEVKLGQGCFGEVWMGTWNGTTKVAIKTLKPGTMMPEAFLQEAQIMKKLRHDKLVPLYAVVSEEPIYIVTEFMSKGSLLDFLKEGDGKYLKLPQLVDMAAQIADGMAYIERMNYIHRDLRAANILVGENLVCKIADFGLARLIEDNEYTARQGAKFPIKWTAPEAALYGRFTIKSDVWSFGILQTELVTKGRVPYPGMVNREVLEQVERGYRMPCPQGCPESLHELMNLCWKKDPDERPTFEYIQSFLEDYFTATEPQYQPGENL

Tests used:
[1] = target: Vascular endothelial growth factor receptor 1 (human (endogenous in HT29)) (UniProt P17948); assay: condition: only cells pretreated with the VEGFR-1 blocking antibody IMC-18F1 (20 μg ml^−1); co-IP; as a1, but HT29 cells pretreated with the VEGFR-1 blocking antibody IMC-18F1 (20 μg ml^−1, 1 h) before VEGF-A; immunoprecipitated with anti-VEGFR-1, blotted for Src, Yes or VEGFR-1
[2] = target: Vascular endothelial growth factor receptor 1 (human (endogenous in HT29)) (UniProt P17948); assay: co-IP; lysates of VEGF-A-treated HT29 cells (RIPA-B buffer) immunoprecipitated with anti-VEGFR-1 antibody; Western blot with antibodies to Src, Yes or VEGFR-1

binding [1]: no binding
binding [2]: binds
Substance: Yes (from UniProt P07947 1-543) (enzyme)
